PubChem BioAssay AID1053208, Peter MacCallum Cancer Centre – 2014

Purpose: 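Synthetic lethal interactions between gene loss and doxorubicin in osteosarcoma cells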 (primary screen)
Cell system: mouse osteosarcoma cells, early-passage culture from an engineered mouse model of fibroblastic bone tumour
Knock-down reagent: siRNA pool against mouse genes, 40 nM
Time to read-out: about 120 h (48 h before drug, then 72 h with drug)
Challenge: doxorubicin 100 nM for 72 h, roughly 30-40% inhibitory dose
Measured: 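Viability read as ATP luminescence after 72 h of 100 nM doxorubicin or none, duplicate wells averaged, scaled to non-targeting siRNA, then expressed as robust z-scores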
Reading the numbers: viability z-score with doxorubicin and doxorubicin viability vs non-targeting: higher = more viable cells under doxorubicin; viability z-score without drug: higher = more viable cells with knock-down alone; z-score of drug to no-drug ratio: higher = less drug sensitisation by knock-down
Call rule: 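Called active if knock-down leaves viability unchanged without drug (z within -2 to 2) but lowers it with doxorubicin (z at or under -2)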
In all, the deposit lists about 17,000 reagents; shown is an unselected part. In the full data, 788 (4.7%) got an active call. 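Calls rest on z-score classes alone; an extra cut-off of viability at most 70% of control was not applied to them.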 Unmarked entries are inactive.

no.	target	combined z-score class	viability z-score with doxorubicin	viability z-score without drug	z-score of drug to no-drug ratio	doxorubicin viability vs non-targeting
1	H1f2	no change with or without drug	1.69	0.51	1.46	1.09
2	Mapk9	no change with or without drug	1.35	0.17	1.35	1.06
3	Rpf2	low cell count without drug only	-0.56	-3.54	2.47	0.89
4	1700123O20Rik	no change with or without drug	-1.01	0.84	-1.46	0.85
5	Vmn1r83	high cell count with doxorubicin only	2.81	1.18	2.14	1.19
6	Mrpl46	low cell count without drug only	-0.67	-2.87	1.69	0.88
7	Tspyl4	no change with or without drug	0.9	0.51	0.67	1.02
8	Aspdh	no change with or without drug	-0.22	0.17	-0.22	0.92
9	Snrpb	low cell count with doxorubicin only (active)	-3.82	-0.67	-3.6	0.6
10	Pcdh18	no change with or without drug	1.24	0.17	1.24	1.05
11	Nemf	high cell count with doxorubicin only	2.25	1.69	1.24	1.14
12	Ythdf3	no change with or without drug	1.12	0.84	0.67	1.04
13	Tdrd12	no change with or without drug	-0.9	0.17	-0.9	0.86

Continued; the last 2 above are carried over.
no.	target	combined z-score class	viability z-score with doxorubicin	viability z-score without drug	z-score of drug to no-drug ratio	doxorubicin viability vs non-targeting
12	Ythdf3	no change with or without drug	1.12	0.84	0.67	1.04
13	Tdrd12	no change with or without drug	-0.9	0.17	-0.9	0.86
14	Syk	no change with or without drug	0.67	-0.84	1.46	1
15	Angptl3	no change with or without drug	-1.01	-0.84	-0.45	0.85
16	Plec	no change with or without drug	-0.22	0.17	-0.22	0.92
17	Cfap36	high cell count with and without drug	2.02	2.19	0.67	1.12
18	Decr2	no change with or without drug	0	-1.18	1.01	0.94
19	Gast	no change with or without drug	-0.22	-0.34	0.11	0.92
20	Klk1b11	no change with or without drug	0.79	1.18	0.11	1.01
